{"source": "BindingDB's records for doi:10.1016/j.bmc.2005.07.038", "about": "(Ohio State University, 2005)", "target": "T1, Aromatase (Homo sapiens, UniProt P11511)", "T1 sequence (P11511 whole entry)": "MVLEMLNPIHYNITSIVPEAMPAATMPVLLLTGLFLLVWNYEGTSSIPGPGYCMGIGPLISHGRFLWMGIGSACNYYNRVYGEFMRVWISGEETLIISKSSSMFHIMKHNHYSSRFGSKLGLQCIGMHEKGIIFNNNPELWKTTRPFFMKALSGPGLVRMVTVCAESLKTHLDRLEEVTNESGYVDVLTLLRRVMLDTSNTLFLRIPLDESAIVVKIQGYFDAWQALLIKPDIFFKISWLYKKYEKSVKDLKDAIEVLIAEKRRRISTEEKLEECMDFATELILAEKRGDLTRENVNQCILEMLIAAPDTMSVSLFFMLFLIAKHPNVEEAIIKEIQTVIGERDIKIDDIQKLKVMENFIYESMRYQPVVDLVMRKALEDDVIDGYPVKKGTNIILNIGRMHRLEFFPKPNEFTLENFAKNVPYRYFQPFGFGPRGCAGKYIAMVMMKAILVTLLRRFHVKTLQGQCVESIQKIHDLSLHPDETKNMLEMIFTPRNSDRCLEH", "conditions": "pH 7; 37 °C", "data": [{"smiles": "O=c1c(-c2ccccc2)c(SCc2ccncc2)oc2cc(OCc3ccc(-c4ccccc4)cc3)ccc12", "note": "[3-phenyl-7-[(4-phenylphenyl)methoxy]-2-[(pyridin-4-ylmethyl)sulfanyl]-4H-chromen-4-one]", "values": [{"measurement": "IC50", "result": 79, "unit": "nM"}, {"measurement": "Ki", "result": 39, "unit": "nM"}]}]}
